Data as given in PubChem BioAssay AID1671195 (Yale University, 2021).
Test: 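Genes whose knockdown alters LDL uptake in liver cancer cells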 (primary screen). Cells: human Huh7 hepatoma cells. Reagent: siRNA pool against human genes, 18 nM. Time to read-out: about 2 to 2.5 days of knockdown, then 8 h LDL uptake. Conditions: DiI-labelled LDL at 30 µg/ml for 8 h, in lipoprotein-deficient serum medium. Detection: 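Per-cell DiI-LDL intensity by automated imaging; well means scaled to the plate median and given as a robust z-score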. Scale: robust z-score: higher = more LDL uptake after knockdown. Active means: 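a gene counts as active if at least two replicate z-scores exceed ±2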.
Here is an unselected part of about 22,000 deposited reagents. About 1,510 of them (6.9%) were called active. 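Active includes knockdowns raising or lowering LDL uptake; positive z-scores mean more uptake, negative mean less.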 Unmarked entries are inactive. No sequences are given here.

MYG1 (MYG1 exonuclease) [SID442898751] showed robust z-score, replicate 1 = -0.332; robust z-score, replicate 2 = -0.461; robust z-score, replicate 3 = -0.808. With knock-down of IFRD2 (interferon related developmental regulator 2) [SID442895443], the screen gave robust z-score, replicate 1 = 0.317; robust z-score, replicate 2 = 0.432; robust z-score, replicate 3 = -1.26. MORC3 (MORC family CW-type zinc finger 3) [SID442901695] gave robust z-score, replicate 1 = -1.26; robust z-score, replicate 2 = -2.38; robust z-score, replicate 3 = 0.815. Silencing of GGH (gamma-glutamyl hydrolase) [SID442894244] came out at: robust z-score, replicate 1 = -0.389; robust z-score, replicate 2 = 0.259; robust z-score, replicate 3 = 0.00482. Knock-down of PROX1 (prospero homeobox 1) [SID442892557] came out at: robust z-score, replicate 1 = 0.00503; robust z-score, replicate 2 = -0.0562; robust z-score, replicate 3 = 0.505. PIK3R6 (phosphoinositide-3-kinase regulatory subunit 6) [SID442902573] showed robust z-score, replicate 1 = -1.02; robust z-score, replicate 2 = -0.919; robust z-score, replicate 3 = -1.38.

For BSDC1 (BSD domain containing 1) [SID442895752] the deposit lists robust z-score, replicate 1 = -0.833; robust z-score, replicate 2 = -0.769; robust z-score, replicate 3 = 0.995. Depletion of TFPI2 (tissue factor pathway inhibitor 2) [SID442894466] gave: robust z-score, replicate 1 = -0.51; robust z-score, replicate 2 = 0.431; robust z-score, replicate 3 = -0.121. Against ZC3H13 (zinc finger CCCH-type containing 13) [SID442887403], the entry reads robust z-score, replicate 1 = 1.01; robust z-score, replicate 2 = 0.233; robust z-score, replicate 3 = 1.53. With knock-down of L3MBTL1 (L3MBTL histone methyl-lysine binding protein 1) [SID442899494], the record shows robust z-score, replicate 1 = -0.477; robust z-score, replicate 2 = -1.2; robust z-score, replicate 3 = -0.203. With knock-down of LYZL4 (lysozyme like 4) [SID442888429], the record shows robust z-score, replicate 1 = 0.836; robust z-score, replicate 2 = 0.554; robust z-score, replicate 3 = 0.774. UGT1A1 (UDP glucuronosyltransferase family 1 member A1) [SID442886058] scored robust z-score, replicate 1 = 0.864; robust z-score, replicate 2 = 1.22; robust z-score, replicate 3 = 1.75.
